# Data reported in patent US20140186348A1.
# The chains behind the UniProt entries cited, without tags or fusion partners. Residues count along the entry.
# UniProt P27918, residues 28-469: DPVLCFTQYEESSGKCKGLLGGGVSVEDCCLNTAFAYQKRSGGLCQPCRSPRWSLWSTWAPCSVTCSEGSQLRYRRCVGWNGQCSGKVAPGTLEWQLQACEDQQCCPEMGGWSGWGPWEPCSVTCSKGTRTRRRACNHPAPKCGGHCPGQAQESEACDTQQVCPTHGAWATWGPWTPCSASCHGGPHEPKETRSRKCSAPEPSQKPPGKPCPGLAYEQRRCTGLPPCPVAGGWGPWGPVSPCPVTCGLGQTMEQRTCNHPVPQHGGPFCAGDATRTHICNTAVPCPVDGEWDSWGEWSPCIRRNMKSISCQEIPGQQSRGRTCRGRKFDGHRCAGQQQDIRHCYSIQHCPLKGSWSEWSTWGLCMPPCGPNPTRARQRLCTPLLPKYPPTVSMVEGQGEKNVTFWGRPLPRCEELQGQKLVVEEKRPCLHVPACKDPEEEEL
# Results are given in words; binding and its absence hold for the method and conditions named. Some entries that bind do so weakly or less than the wild type.
# What was measured:
# [1] = molecular target: human properdin (human) (UniProt P27918); assay: ELISA on properdin-coated plate (FIG. 2)
# [2] = molecular target: human properdin (human) (UniProt P27918); assay: ELISA on properdin-coated plate
# [3] = molecular target: human properdin (human) (UniProt P27918); assay: ELISA on properdin-coated plate, anti-mouse peroxidase detection
# [4] = molecular target: human properdin (human) (UniProt P27918); assay: saturation ELISA, biotinylated antibody on properdin-coated plate
# [5] = molecular target: human properdin (human) (UniProt P27918); assay: properdin binding (FIG. 18)
# [6] = molecular target: human properdin (human) (UniProt P27918); assay: saturation ELISA (FIG. 30)
binding [1],binding [2],binding [3],binding [4],binding [5],binding [6],Binder
binds,binds,binds,,,,NM9401-F(ab′)2 (protein) VH: QVQLQQSAPELARPGASVKMSCTASGYIFTNYPIHWVKQRPGQGLEWIGFIDPGGGYDEPDERFRDRATLTADKSSSTAYMQLSSLTSEDSAIYYCARRGGGYYLDYWGQGTTLTVSSAKTT VL: DIQMTQTTSSLSASLGDRVTISCRASQDISFFLNWYQQKPDGTVKLLIYYTSRYHSGVPSRFSGSGSGTDFSLTINNLEQEDFATYFCQHGNTLPWTFGGGTKLEIKRADAAPTVSIFPPSSEQLTSGGASVVCFLNN
binds,binds,binds,binds,binds,binds,"NM9401-IgG (murine anti-properdin monoclonal antibody, IgG1) (antibody, V domains shown) VH: QVQLQQSAPELARPGASVKMSCTASGYIFTNYPIHWVKQRPGQGLEWIGFIDPGGGYDEPDERFRDRATLTADKSSSTAYMQLSSLTSEDSAIYYCARRGGGYYLDYWGQGTTLTVSS VL: DIQMTQTTSSLSASLGDRVTISCRASQDISFFLNWYQQKPDGTVKLLIYYTSRYHSGVPSRFSGSGSGTDFSLTINNLEQEDFATYFCQHGNTLPWTFGGGTKLEIKR"
binds,,binds,,,,"NM9401-Fab (Fab, V domains shown) VH: QVQLQQSAPELARPGASVKMSCTASGYIFTNYPIHWVKQRPGQGLEWIGFIDPGGGYDEPDERFRDRATLTADKSSSTAYMQLSSLTSEDSAIYYCARRGGGYYLDYWGQGTTLTVSS VL: DIQMTQTTSSLSASLGDRVTISCRASQDISFFLNWYQQKPDGTVKLLIYYTSRYHSGVPSRFSGSGSGTDFSLTINNLEQEDFATYFCQHGNTLPWTFGGGTKLEIKR"
